Consider 39 molecules from the supplement of paper PMC8007513.

The other results are listed elsewhere or left out. Many values rest on one well or one pass, so single values are uncertain.

The subject of this experiment is Saccharomyces cerevisiae BY4743. In words: growth (OD600) with compound + IPBC relative to untreated control; higher = less growth inhibition. The following applies: compound concentration: 133 uM; IPBC concentration: 0.5 ug/ml; 20 h. As for the experimental part:
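NMCCC compounds (133 uM) combined with IPBC (0.5 ug/ml) against Saccharomyces cerevisiae BY4743 in YPD, 96-well plates. Growth was read as OD600 at 20 h and expressed as % of the untreated control. Single pass.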
Consider `Cc1nc2ccc(NC(=O)CCn3cncn3)cc2s1` + CCCCNC(=O)OCC#CI [3-iodo-2-propynyl butylcarbamate (IPBC)], for which the growth stood at 94.5%.
Take `CC1=CC=C(C=C1)C2(\N=C(Cl)/C(=C3/C=C\C=C/N23)C#N)C(F)(F)F` (centres undefined) + CCCCNC(=O)OCC#CI [3-iodo-2-propynyl butylcarbamate (IPBC)]: the growth is 98.3%.
The result for `CCc1ccc(N2C(=O)CN(S(C)(=O)=O)CC2(C)C(=O)NCc2ccccc2)cc1` (centres undefined) + CCCCNC(=O)OCC#CI [3-iodo-2-propynyl butylcarbamate (IPBC)] reads 99.8%; that for `Cc1cc(NS(=O)(=O)c2c(C)nn(C)c2Cl)ccc1N1CCCC1=O` + CCCCNC(=O)OCC#CI [3-iodo-2-propynyl butylcarbamate (IPBC)], 109%.
With `Cc1cc(-c2csc(N)n2)c(C)n1NC(=O)c1ccccc1` + CCCCNC(=O)OCC#CI [3-iodo-2-propynyl butylcarbamate (IPBC)] the figure was 64.2%.
The result for `CCCCN1\C(=N/[S](=O)(=O)C2=CC(=CC=C12)C(=O)NCCN3CCOCC3)C` + CCCCNC(=O)OCC#CI [3-iodo-2-propynyl butylcarbamate (IPBC)] reads 94.1%; that for `CC1CCN(C(=O)c2csc(S(=O)(=O)N(C)C3CCCCC3)c2)CC1` + CCCCNC(=O)OCC#CI [3-iodo-2-propynyl butylcarbamate (IPBC)], 98.7%; that for `CCO/C(O)=C1\C(C)=NC2=C(C(=O)CC(C)(C)C2)C1c1cc(Cl)ccc1F` (centres undefined) + CCCCNC(=O)OCC#CI [3-iodo-2-propynyl butylcarbamate (IPBC)], 102%.
Turning to `COC(=O)c1ccc(CSc2nnc(CNC(=O)c3ccccc3F)o2)o1` + CCCCNC(=O)OCC#CI [3-iodo-2-propynyl butylcarbamate (IPBC)], the growth was found to be 94.5%.
With `COc1ccc(OC)c(C(C)NC(=O)C2CCCCN2S(=O)(=O)c2ccc(C(C)=O)cc2)c1` (centres undefined) + CCCCNC(=O)OCC#CI [3-iodo-2-propynyl butylcarbamate (IPBC)] the figure was 99%; with `O=C(CCn1c(=O)oc2ccccc21)OC1CCCCC1=O` (centres undefined) + CCCCNC(=O)OCC#CI [3-iodo-2-propynyl butylcarbamate (IPBC)], 99.8%; with `Cc1ccc(S(=O)(=O)N(Cc2nc(-c3ccccc3)no2)C(C)C)cc1` + CCCCNC(=O)OCC#CI [3-iodo-2-propynyl butylcarbamate (IPBC)], 75%.
With `CC1=CC=C(NC(=O)\C2=C\CN(CC2)CC3=CC=C(F)C=C3)C=C1F` + CCCCNC(=O)OCC#CI [3-iodo-2-propynyl butylcarbamate (IPBC)] the figure was 104%; with `CCOC(=O)C(NC(=O)c1ccco1)(Nc1sc2c(c1C(=O)OC)CCCC2)C(F)(F)F` (centres undefined) + CCCCNC(=O)OCC#CI [3-iodo-2-propynyl butylcarbamate (IPBC)], 97.4%.
With `CCN(Cc1ccncc1)Cn1c(=O)oc2ccccc21` + CCCCNC(=O)OCC#CI [3-iodo-2-propynyl butylcarbamate (IPBC)], the growth came out at 91.9%.
With `CCOC(=O)c1c(C)[nH]c(C)c1S(=O)(=O)NCC(=O)N1c2ccccc2CC1C` (centres undefined) + CCCCNC(=O)OCC#CI [3-iodo-2-propynyl butylcarbamate (IPBC)], the growth turned out to be 111%.
On to `CCOC(=O)c1[nH]nc(C(=O)c2ccccc2)c1-c1ccccc1` + CCCCNC(=O)OCC#CI [3-iodo-2-propynyl butylcarbamate (IPBC)], for which the growth was found to be 93%.
The result for `CC1=CC(=NO1)COC(=O)C/2=C/N3CC[S](=O)(=O)/N=C3/C=C2` + CCCCNC(=O)OCC#CI [3-iodo-2-propynyl butylcarbamate (IPBC)] reads 94.8%.
The result for `CCOC(=O)\C1=C(/CN(CC)CC)N(C)C(=O)NC1C2=CC=CC=C2` (centres undefined) + CCCCNC(=O)OCC#CI [3-iodo-2-propynyl butylcarbamate (IPBC)] reads 85.1%; that for `COc1cccc(OC)c1C(=O)OCC(=O)NC(=O)NCc1ccccc1` + CCCCNC(=O)OCC#CI [3-iodo-2-propynyl butylcarbamate (IPBC)], 99.9%; that for `COC1=CC=CC2=C1N(CC3=CC=CC(=C3)Cl)\C=C(C#N)/C2=O` + CCCCNC(=O)OCC#CI [3-iodo-2-propynyl butylcarbamate (IPBC)], 100%.
The result for `COC(=O)CSc1nc(-c2ccc(F)cc2)cc(C(F)(F)F)n1` + CCCCNC(=O)OCC#CI [3-iodo-2-propynyl butylcarbamate (IPBC)] reads 78.3%; that for `COCc1nc2ccccc2n1CC(O)COc1ccccc1` (centres undefined) + CCCCNC(=O)OCC#CI [3-iodo-2-propynyl butylcarbamate (IPBC)], 106%; that for `Cc1nn(-c2ccccc2)c(C)c1NC(=O)Cn1cnnn1` + CCCCNC(=O)OCC#CI [3-iodo-2-propynyl butylcarbamate (IPBC)], 93.2%.
Regarding `CCOc1ccc(CC(=O)NCc2cn3c(C)csc3n2)cc1` + CCCCNC(=O)OCC#CI [3-iodo-2-propynyl butylcarbamate (IPBC)], the growth turned out to be 99.5%.
With `Cc1nc2cc(NC(C)C(=O)NCC(F)(F)F)ccc2o1` (centres undefined) + CCCCNC(=O)OCC#CI [3-iodo-2-propynyl butylcarbamate (IPBC)] the figure was 98.2%; with `COCCN(CC(=O)Nc1cccc(C)c1C)C(=O)CCc1c[nH]c2ccccc12` + CCCCNC(=O)OCC#CI [3-iodo-2-propynyl butylcarbamate (IPBC)], 115%; with `CCc1ccc(NC(=O)CN2C(=O)CSc3ccc(S(=O)(=O)N(C)C)cc32)cc1` + CCCCNC(=O)OCC#CI [3-iodo-2-propynyl butylcarbamate (IPBC)], 105%.
For `Cc1nc(-c2ccccc2)c(C(=O)OCC(=O)c2ccc[nH]2)s1` + CCCCNC(=O)OCC#CI [3-iodo-2-propynyl butylcarbamate (IPBC)], the growth is 99.6%.
Regarding `O=C(COC(=O)CCC(=O)c1ccc2c(c1)OCCO2)Nc1ccc(Cl)cc1C(F)(F)F` + CCCCNC(=O)OCC#CI [3-iodo-2-propynyl butylcarbamate (IPBC)], the growth was 112%.
The result for `Cc1ccc(-c2n[nH]c(SCC(=O)NC3(C#N)CCCC3)n2)cc1` + CCCCNC(=O)OCC#CI [3-iodo-2-propynyl butylcarbamate (IPBC)] reads 98.9%; that for `COC1=CC=CC=C1NC(=O)CS\C2=N\C(=C/C(=O)N2C3=CC=CC=C3OC)O` + CCCCNC(=O)OCC#CI [3-iodo-2-propynyl butylcarbamate (IPBC)], 92.4%; that for `CCc1ccc(OCC(=O)NC2CCCCC2)c(-n2cnnc2)c1` + CCCCNC(=O)OCC#CI [3-iodo-2-propynyl butylcarbamate (IPBC)], 83.3%.
As for `CC1=CC=C(C=C1C)/C2=C(C)/C(=N\[S]2(=O)=O)NC3=CC=C(Br)C(=C3)C` + CCCCNC(=O)OCC#CI [3-iodo-2-propynyl butylcarbamate (IPBC)], the growth stood at 104%.
The result for `CCOc1ccccc1NC(=O)c1cnn2cccnc12` + CCCCNC(=O)OCC#CI [3-iodo-2-propynyl butylcarbamate (IPBC)] reads 99.9%; that for `COC(=O)CNC(=O)CSc1nnc(-c2ccccc2C)n1-c1ccccc1` + CCCCNC(=O)OCC#CI [3-iodo-2-propynyl butylcarbamate (IPBC)], 80%.
The result for `CCS(=O)(=O)c1ccccc1C(=O)OCC(=O)N1CCNC1=O` + CCCCNC(=O)OCC#CI [3-iodo-2-propynyl butylcarbamate (IPBC)] reads 106%; that for `CC(C)COC(=O)Nc1nnc(/C=C/c2ccccc2)s1` + CCCCNC(=O)OCC#CI [3-iodo-2-propynyl butylcarbamate (IPBC)], 91.3%; that for `CCCCn1c(COC(=O)c2ccc(Cl)s2)nc2cc(S(N)(=O)=O)ccc21` + CCCCNC(=O)OCC#CI [3-iodo-2-propynyl butylcarbamate (IPBC)], 86.8%.
